Among all 300,000 compounds or so, about 5,400 (1.8%) were called active. Inconclusive means that the source gave no clear call. Such entries were picked first, then a sample of the others. Calls follow the shape of the full dose curve; tested in HEK293 cells. Potencies beside an inconclusive call are fits to weak or partial responses and may not hold up.
Assay: qHTS for inhibitors of binding or entry into cells for Marburg Virus
Details: Marburg virus pseudotyped entry inhibition, cell reporter; series mostly up to 37.8 µM
Potency is read from the fitted curve at half-maximal effect.

| SMILES | Potency |
| --- | --- |
| COc1ccc(-c2nnc(NC(=O)c3ccco3)s2)cc1 | inconclusive: 10 µM [activator, partial curve, poor fit] |
| CCOc1cc2c(cc1O)C(=NO)CC1C2CCC2(C)C(O)CCC12 (stereo not drawn) | inconclusive: 0.0891 µM [inhibitor, full curve, poor fit] |
| Cc1ccc(S(=O)(=O)c2nc(-c3ccccc3Cl)oc2N(C)C2CCN(C)CC2)cc1 | inconclusive: 35.5 µM [inhibitor, single point] |
| COC(=O)c1c(NC(=O)CN2CCN(c3cccc(Cl)c3)CC2)sc(C)c1C | inconclusive: 35.5 µM [activator, single point] |
| CCOC(=O)c1cc2c(=O)n3cccc(C)c3nc2n(CC2CCCO2)c1=NC(C)=O (stereo not drawn) | inactive |
| CCc1ccc(NCCC(=O)c2ccc(Cl)cc2)cc1 | inconclusive: 18.3 µM [activator, partial curve, poor fit] |
| Cc1ccc(CSc2nnc(-c3cccs3)n2C)cc1 | inactive |
| Cn1c(=O)[nH]c(=O)c2c1nc(NCCc1ccccc1)n2Cc1ccc(F)cc1 | inconclusive: 1.78 µM [inhibitor, partial curve, poor fit] |
| Cc1ccc(S(=O)(=O)N2CCOCC2)cc1NC(=O)COc1ccc(-c2nnco2)cc1 | inconclusive: 2 µM [activator, full curve] |
| COc1ccc(/C=N/Nc2nc3ccccc3[nH]2)cc1OC | inconclusive: 29.1 µM [inhibitor, single point] |
| O=C1NC(=Nc2ccccc2)SC1Cc1cccc(Cl)c1Cl (stereo not drawn) | inactive |
| O=C(CCCN1C(=O)/C(=C/c2cccc(Br)c2)SC1=S)NCCCN1CCOCC1 | inconclusive: 7.94 µM [inhibitor, partial curve, poor fit] |
| CC(=O)N1CCN(c2cccc(C)c2C)CC1 | inconclusive: 20.6 µM [activator, partial curve, poor fit] |
| CC(C)(C)c1ccc(C(=O)Nc2ccc(N3CCOCC3)cc2)cc1 | inconclusive: 0.092 µM [inhibitor, full curve, poor fit] |
| COc1ccc(S(=O)(=O)N2CCOCC2)cc1NC(=O)c1cc2c(s1)CCCC2 | inconclusive: 23.1 µM [activator, partial curve, poor fit] |
| Cc1cccc(/C(N)=N/OC(=O)Cc2ccccc2)c1 | inconclusive: 5.62 µM [activator, single point] |
| Cc1nnc(NC(=O)CSc2ccc(-c3ccco3)nn2)s1 | inconclusive: 8.91 µM [activator, single point] |
| O=C(c1ccc2c(c1)OCO2)C1CCCN(Cc2ccc3nsnc3c2)C1 (stereo not drawn) | inconclusive: 6.31 µM [inhibitor, partial curve, poor fit] |
| COc1ccc(CCNC2CC(=O)N(C3CCCCC3)C2=O)cc1OC (stereo not drawn) | inconclusive: 0.447 µM [inhibitor, partial curve, poor fit] |
| Cc1cc(Cl)ccc1NC(=S)NCCC(c1ccccc1)c1ccccc1 | inconclusive: 22.4 µM [inhibitor, single point] |
| COC(=O)c1ccc(/C=N/NC(=O)C(=O)NCC2CCCO2)cc1 (stereo not drawn) | inactive |
| CCOC(=O)/C=C1\SCC(=O)N1CCOc1cccc(Br)c1 | inconclusive: 17.8 µM [inhibitor, single point] |
| O=C(Nn1c(SCc2ccc(F)cc2)nc2ccsc2c1=O)c1ccccc1 | inactive |

| SMILES | Potency |
| --- | --- |
| O=C(N/N=C/c1cccc([N+](=O)[O-])c1)c1ccc(Br)cc1 | inactive |
| CCc1ccccc1NC(=O)CN1CCN(CC(=O)Nc2cc(C)ccc2OC)CC1 | inconclusive: 2.82 µM [inhibitor, partial curve, poor fit] |
| Cc1ccc2nc(NC(=O)CN(C)S(=O)(=O)c3cccc4nsnc34)sc2c1 | inconclusive: 7.3 µM [inhibitor, full curve, poor fit] |
| Cc1cccc2cc(CN(Cc3cccs3)C(=S)NCC3CCCO3)c(=O)[nH]c12 (stereo not drawn) | inconclusive: 22.4 µM [inhibitor, single point] |
| CC(=O)N(Cc1c(C#N)c2ccccc2n1C)c1ccccc1 | inactive |
| O=C(CCCN1C(=O)c2ccccc2C1=O)NCCCN1CCOCC1 | inconclusive: 5.62 µM [inhibitor, single point] |
| Cn1cc(/C=C/C(=O)N2CCCC(C(=O)c3cccc(C(F)(F)F)c3)C2)cn1 (stereo not drawn) | inactive |
| C/C(=N/NS(=O)(=O)c1ccc(Br)cc1)c1ccc(NC(=O)c2ccc(C)o2)cc1 | inconclusive: 35.5 µM [activator, single point] |
| CC(C)CNS(=O)(=O)c1ccc(CCC(=O)N2CCN(Cc3ccccc3)CC2)cc1 | inconclusive: 2.51 µM [inhibitor, partial curve, poor fit] |
| Cc1nn(-c2ccccc2)c2sc(C(=O)NC3CC3)cc12 | inactive |
| COc1ccc(C(=O)NC2CCN(S(=O)(=O)c3ccccc3)CC2)cc1 | inconclusive: 3.55 µM [inhibitor, single point] |
| Cc1ccc2c(c1)N(CCC(=O)NCc1ccccc1Cl)C(=O)CO2 | inactive |
| O=Cc1cn(Cc2ccc(F)cc2Cl)c2ccccc12 | inconclusive: 3.98 µM [inhibitor, partial curve, poor fit] |
| Fc1ccc(Oc2ccc3nnc(C(F)(F)F)n3n2)cc1 | inconclusive: 1.58 µM [activator, partial curve, poor fit] |
| O=C(Nc1ccc2c(c1)oc1ccccc12)C1CC1 | inconclusive: 2 µM [activator, full curve, poor fit] |
| COc1ccc(N/C(C)=C/C(=S)Nc2ccccc2)cc1 | inconclusive: 20 µM [inhibitor, partial curve, poor fit] |
| O=C(Nc1ccccc1C(=O)NCCCn1ccnc1)c1ccc(Cl)cc1Cl | inconclusive: 25.1 µM [activator, single point] |
| Cc1cccc(-c2c(O)cc(=O)[nH]c2Cl)c1 | inactive |
| CCN(c1ccccc1)S(=O)(=O)c1cccc(C(=O)NCc2ccccc2CN2CCOCC2)c1 | inconclusive: 1.58 µM [inhibitor, partial curve, poor fit] |
| COc1ccc(-n2c(N)c(C#N)c3ccc([N+](=O)[O-])cc3c2=O)cc1 | inactive |
| Cc1nn(Cc2ccccc2Cl)c(C)c1N | inconclusive: 20 µM [activator, single point] |
| CCOC(=O)N1CCN(C(c2cccnc2)c2ccc3cccnc3c2O)CC1 (stereo not drawn) | inconclusive: 0.501 µM [inhibitor, full curve, poor fit] |
| Cc1ccc(N2C(=O)CC(Sc3nccc(C)n3)C2=O)cc1 (stereo not drawn) | inconclusive: 0.794 µM [inhibitor, full curve, poor fit] |

| SMILES | Potency |
| --- | --- |
| N#CC(OC(=O)c1ccccc1)c1cccc([N+](=O)[O-])c1 (stereo not drawn) | inconclusive: 31.6 µM [activator, single point] |
| COc1cc2c(cc1OC)CN(C(=O)C1CCCN1S(=O)(=O)c1ccc(F)cc1)CC2 (stereo not drawn) | inactive |
| Cc1ccc(Cl)cc1N(C)C(=O)c1cn(C2CCCCC2)c(=O)c2c1c1ccccc1n2C | inactive |
| CC(C)(C)c1ccc(Cn2c(=N)n(CC(O)c3ccco3)c3ccccc32)cc1 (stereo not drawn) | active: 11.2 µM |
| O=C(Nc1cccc(-c2nnc(-c3ccccc3)o2)c1)C1CC1 | inconclusive: 1 µM [activator, full curve, poor fit] |
| Oc1ccc(/C=C/c2cc(O)cc(O)c2)cc1 | active: 3.16 µM |
| CC1(C)Cc2cccc(OCC(=O)N3CCN(c4ccc(F)cc4)CC3)c2O1 | inconclusive: 12.6 µM [inhibitor, partial curve, poor fit] |
| Cc1ccc2c(c1)nnn2C1CCN(CC(=O)Nc2ccc3c(c2)OCCO3)CC1 | inactive |
| Cc1c(NC(=O)Nc2ccccc2C(F)(F)F)sc2nc3n(c(=O)c12)CCC(C)CC3 (stereo not drawn) | inactive |
| CCOC(=O)C1(CCc2ccccc2)CCN(C(=O)CCc2cnn(C)c2)CC1 | inactive |
| Cc1cccc(OCC(=O)NNC(=O)c2cc3ccccc3oc2=O)c1 | inactive |
| CCOc1cc(C(=O)N2CCn3c4c(c5cc(C)ccc53)CCCC42)cc(OCC)c1OCC (stereo not drawn) | inactive |
| O=C(NCC(c1ccc(F)cc1)N1CCOCC1)c1cccnc1Sc1ccc(Cl)cc1 (stereo not drawn) | inconclusive: 11.2 µM [inhibitor, single point] |
| CCOc1ccccc1NC(=O)c1cc(SC)ccc1Cl | inconclusive: 12.6 µM [inhibitor, partial curve, poor fit] |
| CCOC(=O)c1c(NC(=O)C2=C(C)NC(=S)NC2c2ccc(F)cc2)sc(C)c1C (stereo not drawn) | inactive |
| Fc1ccc2c(c1)-c1nc(-c3ccccc3)cc(-c3ccccc3)c1CO2 | inactive |
| O=S1(=O)CC(N2CCCCC2)CN1CCc1ccccc1 (stereo not drawn) | inconclusive: 28.1 µM [activator, single point] |
| CCN(C(=O)COC(=O)/C=C/c1ccc(O)c(OC)c1)C1CCS(=O)(=O)C1 (stereo not drawn) | inconclusive: 4.61 µM [inhibitor, single point] |
| COc1ccc(N(C(=O)c2ccco2)C(C(=O)NC2CCCC2)c2ccc(N(C)C)cc2)cc1OC (stereo not drawn) | inactive |
| Cc1cc(C)nc(NS(=O)(=O)c2ccc(NC(=S)NC(=O)CC(C)C)cc2)n1 | inconclusive: 35.5 µM [activator, single point] |
| Cc1cc(C)c(S(=O)(=O)Nc2ccccc2C(=O)OCC(=O)NCc2ccccc2)c(C)c1 | inconclusive: 0.631 µM [inhibitor, full curve, poor fit] |
| CCOC(=O)c1c(C)[nH]c(C)c1C(=O)COC(=O)/C=C/c1ccc(OC)cc1 | inconclusive: 3.98 µM [inhibitor, single point] |

4 successive entries already listed, quoted:

| SMILES | Potency |
| --- | --- |
| N#CC(OC(=O)c1ccccc1)c1cccc([N+](=O)[O-])c1 (stereo not drawn) | inconclusive: 31.6 µM [activator, single point] |
| COc1cc2c(cc1OC)CN(C(=O)C1CCCN1S(=O)(=O)c1ccc(F)cc1)CC2 (stereo not drawn) | inactive |
| Cc1ccc(Cl)cc1N(C)C(=O)c1cn(C2CCCCC2)c(=O)c2c1c1ccccc1n2C | inactive |
| CC(C)(C)c1ccc(Cn2c(=N)n(CC(O)c3ccco3)c3ccccc32)cc1 (stereo not drawn) | active: 11.2 µM |

Reference: PubChem BioAssay AID540276 (National Center for Advancing Translational Sciences (NCATS), 2011)
